For 60 compounds, cell number change and AC50 results are on record in PubChem BioAssay AID2685 (National Center for Advancing Translational Sciences (NCATS), 2010).

The nature of this experiment: qHTS Assay for Lipid Storage Modulators in Drosophila S3 Cells.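 For cell number change: cells counted by Cell Tracker Red CMTPX staining in the red channel.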 The conditions noted are these: BODIPY lipid droplet fluorescence, 18-24 h; for cell number change: measured here: cell count max response, cells fed with added oleic acid. The gist of the method: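 Drosophila S3 cells got compounds at several concentrations plus oleic acid (400 uM solution). Laser-scanning cytometry with 488 nm excitation read lipid droplets at 500-530 nm and cells at 575-640 nm. Percent activity was relative to 20 uM Triacsin C.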
(In general: In qHTS, concentration-response curves come from the screen itself.)

[1] abbreviates: measured here: cell number channel AC50, cells fed with added oleic acid.
[2] abbreviates: measured here: lipid fluorescence (Fed channel) AC50, cells fed with added oleic acid.

For orientation: AC50 means the midpoint of the concentration-response curve, whichever way the signal moves.

Each structure is given as a SMILES string. Some of the results follow. Shown are side measurements of this screen, not its main read-out; they come without a call. Most of these compounds were active or inconclusive in the main read-out, so they are no random draw. The note in brackets gives the kind of curve behind each potency; many fits are weak.

Turning to `C=CCOC(=O)C(C#N)c1nc2ccccc2nc1N1CCCC1` (stereo not drawn), the cell number change was 7.5%.

As for `CC(C)C(NC(=O)c1ccc2c(c1)OCO2)C(=O)N/N=C\c1ccco1` (stereo not drawn), the cell number change is -13.1%. Further, the half-maximal activity concentration (AC50) under setting [1] was 0.0259 µM [falling, full curve, poor fit].

Consider `N/C(=N\O)c1ccc([N+](=O)[O-])s1`, for which the cell number change was -21.8%. In addition, the concentration at half-maximal activity (AC50) under setting [1] was 6.51 µM [falling, single point]. Also, the AC50 under setting [2] was 2.59 µM [falling, partial curve, poor fit].

`CC(C)(C)c1ccc(OC(=O)CN2C(=O)C3C4CCC(C4)C3C2=O)cc1` (stereo not drawn): the cell number change was -1.54%. In addition, the AC50 under setting [2] was 4.61 µM [falling, partial curve].

For the compound `CCCCC(O)(CCCC)C(=O)NN(C(=O)CCl)c1ccccc1`, the cell number change is -15.3%. Moreover, the AC50 under setting [2] was 23.1 µM [falling, single point].

As to `COC(=O)c1ccccc1NC(=O)C1(S(=O)(=O)c2ccc(Cl)cc2)CC1`, the cell number change is -26.7%. In addition, under setting [1], the half-maximal activity concentration (AC50) is 0.164 µM [falling, full curve, poor fit].

For `CCS(=O)(=O)N1CCN(Cc2c[nH]c3ccccc23)CC1`, the cell number change came out at 10.9%. Moreover, under setting [2], the AC50 was 29.1 µM [rising, single point].

Regarding `NC(=O)CSc1nc2scc(-c3ccc(Cl)cc3)c2c(=O)n1Cc1ccccc1`, the cell number change is -7.46%. For the same compound, the AC50 under setting [2] was 29.1 µM [falling, single point].

Regarding `CCN(CC)S(=O)(=O)c1ccc(NC(=S)NC(=O)CC(C)C)cc1`, the cell number change came to 0.47%.

Turning to `CCn1c(CCNC(=O)c2ccc(Cl)c(Cl)c2)nnc1SCCOc1ccc(OC)cc1`, the cell number change was -28.3%. In addition, under setting [2], the half-maximal activity concentration (AC50) is 23.1 µM [falling, partial curve].

Turning to `Cc1cc(O)c(-c2cc(C(=O)Nc3ccc(S(=O)(=O)N4CCOCC4)cc3)[nH]n2)cc1C`, the AC50 runs as follows: under setting [1], 2.31 µM [falling, single point]; under setting [2], 2.06 µM [falling, partial curve].

Take `CCCCn1ccnc1C(=O)c1ccc(S(=O)(=O)N(CCOC)CCOC)cc1`: the cell number change is -23.2%. Moreover, under setting [1], the AC50 was 0.00517 µM [falling, full curve, poor fit].

Turning to `CCc1nc2nc(C)c(NS(=O)(=O)c3ccc(CC(C)C)cc3)c(=O)n2[nH]1`, under setting [2], the AC50 is 6.51 µM [rising, single point].

With `COC(=O)Cc1ccc(NC(=O)c2ccc3c(c2)C(=O)N(Cc2ccco2)C3=O)cc1`, the cell number change is -7.92%. Also, the AC50 under setting [2] is 23.1 µM [falling, single point].

For `CCCCn1nnc(NC(=O)COc2ccc(Cl)c(C)c2)n1`, the cell number change was -111%. The AC50 under setting [1] is 23.1 µM [falling, partial curve]. In addition, the AC50 under setting [2] was 20.6 µM [falling, partial curve].

For `CC(=O)CCn1cnc([N+](=O)[O-])n1`, the cell number change was found to be 2.3%. Under setting [1], the AC50 is 0.0651 µM [rising, full curve, poor fit].

On to `CCN(CCCNC(=O)CCn1c(=S)[nH]c2cc3c(cc2c1=O)OCO3)c1cccc(C)c1`, for which the cell number change was determined as 368%. Besides, under setting [1], the AC50 is 23.1 µM [rising, partial curve]. For the same compound, under setting [2], the AC50 was 29.1 µM [rising, partial curve].

Take `COCCn1c(SCc2ccc(OC)c(F)c2)nnc1-c1ccncc1`: under setting [2], the AC50 was 1.84 µM [falling, partial curve].

Regarding `COc1cccc(CN2C(=O)CCC2(C)C(=O)NC2CCCC2)c1` (stereo not drawn), the cell number change is -41.9%. The AC50 under setting [1] was 29.1 µM [falling, single point].

In the case of `Cc1cc(C)nc(N2CCC(C(=O)Nc3ccc4c(c3)CCC4)CC2)n1`, the cell number change is -91.8%. Also, under setting [1], the AC50 was 23.1 µM [falling, partial curve].

Turning to `COc1ccc(C(=O)NC(=S)Nc2ccccc2N2CCN(S(C)(=O)=O)CC2)cc1OC`, the cell number change is -0.131%. In addition, the AC50 under setting [2] is 7.31 µM [falling, single point].

With `COc1cccc(C(=O)N2CCN(c3ccc(N4CCOCC4)nn3)CC2)c1`, the cell number change was -12.1%.

In the case of `C=CCNC(=O)/C(C#N)=C/c1c(N(Cc2ccccc2)Cc2ccccc2)nc2ccccn2c1=O`, the cell number change is -16.2%.

Take `CCOc1cc(N2CCOCC2)c(OCC)cc1NC(=O)COC(=O)CCOc1cc(C)ccc1C`: the cell number change is 5.49%.

Regarding `COc1ccc(S(=O)(=O)Cc2ccc(C(=O)N3CC(C)CC(C)C3)o2)cc1` (stereo not drawn), the cell number change is 10.1%.

Consider `O=C(CCNC(=O)c1ccc(Br)cc1)OCc1ccccc1Cl`, for which the cell number change was 4.28%. Besides, the AC50 under setting [2] was 25.9 µM [falling, partial curve, poor fit].

Consider `Cc1ccc(Cn2nc(-c3ccccc3)nc2-c2ccccc2)cc1`, for which the AC50 under setting [1] is 1.46 µM [rising, full curve, poor fit].

On to `COC(=O)Cn1c(=O)c2c(nc(Br)n2Cc2ccccc2Cl)n(C)c1=O`, for which the cell number change is 29.6%. The AC50 under setting [2] was 4.61 µM [rising, partial curve, poor fit].

In the case of `CC(C)N(CCNS(=O)(=O)c1ccc(Cl)cc1)C(C)C`, the cell number change is -15.1%. The AC50 under setting [1] was 4.11 µM [falling, single point]. Under setting [2], the AC50 was 6.51 µM [falling, single point].

`COc1ccc(OCc2nc3c4c(ncn3n2)-c2ccccc2CC42CCCC2)cc1`: the cell number change is 23.4%. Besides, under setting [1], the AC50 is 2.31 µM [rising, full curve, poor fit].

In the case of `COc1ccc(C)cc1NC(=O)c1cccc(-c2ccc(OC(C)=O)cc2)c1`, the cell number change was -7.62%. Further, the AC50 under setting [2] is 6.51 µM [rising, single point].

As for `Cc1cc2c(c(N3CCOCC3)n1)C(=O)OC2`, the cell number change came out at 30.4%. Moreover, under setting [1], the AC50 was 8.2 µM [rising, partial curve, poor fit].

Consider `CCCCn1c(O)c(N=Nc2ccccn2)c2ccccc21`, for which the cell number change was 7.71%. Under setting [2], the AC50 is 32.6 µM [falling, single point].

Regarding `Cc1ccc(C2(C)NC(=O)N(CC(=O)NC(C)c3ccccc3)C2=O)cc1` (stereo not drawn), under setting [2], the AC50 was 18.4 µM [rising, partial curve].

With `Cc1ccc(C(=O)NCC(=O)Nc2ccncc2)cc1`, the AC50 under setting [2] is 23.1 µM [rising, single point].

`O=C(CN1CCN(c2ccc(F)cc2)CC1)Nc1cccc(C(F)(F)F)c1`: the cell number change was 0.204%.

For `CCC(=O)Nc1ccccc1C(=O)OCC(=O)c1ccc2ccccc2c1`, the AC50 under setting [1] is 2.31 µM [rising, single point].

Regarding `C=C1CCC[C@]2(C)C[C@H]3OC(=O)C(CN4CCCCC4CO)[C@H]3CC12` (stereo partly drawn), the cell number change was -46.1%. The AC50 under setting [1] is 20.6 µM [falling, partial curve]. Also, the AC50 under setting [2] was 23.1 µM [falling, partial curve].

For `CN1C(=O)N(C)C(c2cccc([N+](=O)[O-])c2)C2=C1CCCC2=O` (stereo not drawn), the cell number change stood at 7.66%. For the same compound, under setting [2], the AC50 is 6.51 µM [rising, single point].

For `O=C(c1cc(COc2ccc(F)cc2Cl)on1)N1C[C@H]2CC[C@H]1C2`, the cell number change is 6.16%. Moreover, the AC50 under setting [1] is 6.51 µM [rising, single point].

As for `O=[N+]([O-])c1cc(Br)c(Nc2ccccc2)c([N+](=O)[O-])c1`, the cell number change was -9.33%. Also, the AC50 under setting [2] was 23.1 µM [falling, partial curve].

For `COc1ccc(N(CC(=O)Nc2ccccc2F)S(=O)(=O)c2ccc(C)c([N+](=O)[O-])c2)cc1`, the cell number change is -11.7%. In addition, the half-maximal activity concentration (AC50) under setting [2] was 29.1 µM [falling, single point].

For `O=C1C2=C(CCCC2)C(=O)N1c1cccc(OCCBr)c1`, the cell number change is -12.1%. The AC50 under setting [2] is 0.517 µM [falling, full curve].

As to `N=c1sccn1CC(=O)NCCc1ccc(Cl)cc1Cl`, the cell number change is -33.5%. Under setting [1], the AC50 was 0.651 µM [falling, full curve, poor fit]. Further, under setting [2], the AC50 was 3.66 µM [falling, full curve].

Regarding `CCN(Cc1ccccc1)C(=O)c1cc(S(=O)(=O)N2CCOCC2)cn1C`, the cell number change turned out to be 10.7%. For the same compound, the half-maximal activity concentration (AC50) under setting [2] is 3.26 µM [rising, single point].

With `CCCc1nnc(NC(=O)c2oc3ccccc3c2COCC)s1`, the cell number change was -32.5%.

Turning to `C=CCn1c(COc2ccccc2)nc2ccccc21`, the cell number change is -8.31%. In addition, the AC50 under setting [2] was 3.26 µM [rising, single point].

On to `O=C(O)CSc1nnnn1-c1ccccc1`, for which the cell number change was -2.32%. Also, under setting [1], the concentration at half-maximal activity (AC50) is 0.184 µM [falling, full curve, poor fit].

As to `C=CCn1c(COc2cccc3cccnc23)nnc1SCC(=O)O`, the cell number change was -10.6%. The AC50 under setting [2] is 5.8 µM [falling, full curve].

With `O=C(NN1CCOCC1)C12CC3CC(CC(C3)C1)C2`, the cell number change came to 6.98%. Moreover, the AC50 under setting [2] was 1.16 µM [falling, single point].

As for `O=C(NCCc1ccccc1)c1ccc(S(=O)(=O)N2CCCC2)cc1`, the cell number change was 11.4%. Moreover, the AC50 under setting [2] is 0.461 µM [falling, partial curve].

Regarding `COc1ccc(N(C)C(=S)Oc2ccc(C(=O)Nc3ccccc3)cc2)cc1`, the cell number change was -15.6%. Moreover, the AC50 under setting [1] was 0.00461 µM [falling, full curve, poor fit].

Regarding `C=CCNC(=O)/C(C#N)=C/c1ccccc1[N+](=O)[O-]`, the cell number change is -42.1%. The AC50 under setting [1] was 8.2 µM [falling, partial curve, poor fit].

As for `COc1ccc(S(=O)(=O)N2CCN(C(=O)C3CCC3)CC2)cc1`, the cell number change is 25%. For the same compound, the AC50 under setting [1] was 6.51 µM [rising, partial curve, poor fit].

Turning to `COc1ccc(CN2CCN(C(=O)CCC(=O)Nc3nnc(C(F)(F)F)s3)CC2)cc1F`, the cell number change was 4.78%. Also, under setting [2], the AC50 was 0.326 µM [falling, partial curve, poor fit].

On to `Cc1ccc(NC(=O)CN2CCCN(S(=O)(=O)c3ccc(Br)s3)CC2)cc1`, for which the cell number change was determined as 49.4%. Besides, the AC50 under setting [1] was 6.51 µM [rising, partial curve]. In addition, the AC50 under setting [2] is 2.59 µM [rising, partial curve].

Regarding `Cc1ccc(NS(=O)(=O)c2ccc3c(c2)CCC(=O)N3)cc1`, the cell number change was -13.8%. Also, under setting [2], the half-maximal activity concentration (AC50) is 25.9 µM [falling, single point].

As to `NS(=O)(=O)c1ccc(CCNC(=O)C(=O)NCC2OCCN2C(=O)c2ccc3c(c2)OCO3)cc1` (stereo not drawn), the cell number change was -24.6%. In addition, under setting [1], the AC50 is 1.84 µM [falling, partial curve, poor fit].

For `CN(C)S(=O)(=O)c1cccc(NC(=S)NC2CCCCC2)c1`, the cell number change turned out to be 9.97%. Besides, the concentration at half-maximal activity (AC50) under setting [2] was 4.61 µM [rising, full curve, poor fit].

Regarding `COc1ccc(-c2csc(CCn3nc(C)cc3C)n2)cc1`, the cell number change was determined as 24.1%. The AC50 under setting [2] is 2.06 µM [rising, partial curve, poor fit].
